From ChEMBL document CHEMBL3988442, “University of Dundee, Small-Polar-MMV Screening Library” (2021).

Sequences of proteins named here, by UniProt entry; tags and fusion partners are left off. Residues count along the entry.
UniProt P9WPC5, whole entry: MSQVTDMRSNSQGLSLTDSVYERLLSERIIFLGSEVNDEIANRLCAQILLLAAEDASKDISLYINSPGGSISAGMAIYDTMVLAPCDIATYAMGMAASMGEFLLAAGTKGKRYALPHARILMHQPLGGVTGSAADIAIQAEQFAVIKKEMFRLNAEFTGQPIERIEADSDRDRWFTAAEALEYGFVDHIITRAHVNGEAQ
UniProt P9WPC3, whole entry partner: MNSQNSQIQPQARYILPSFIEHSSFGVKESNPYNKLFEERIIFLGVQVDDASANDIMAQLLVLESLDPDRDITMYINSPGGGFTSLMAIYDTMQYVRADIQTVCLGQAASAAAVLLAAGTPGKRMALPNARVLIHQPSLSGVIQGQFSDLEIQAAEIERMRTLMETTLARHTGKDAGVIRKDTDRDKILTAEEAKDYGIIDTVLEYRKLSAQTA
UniProt Q8IDJ8, 1-583: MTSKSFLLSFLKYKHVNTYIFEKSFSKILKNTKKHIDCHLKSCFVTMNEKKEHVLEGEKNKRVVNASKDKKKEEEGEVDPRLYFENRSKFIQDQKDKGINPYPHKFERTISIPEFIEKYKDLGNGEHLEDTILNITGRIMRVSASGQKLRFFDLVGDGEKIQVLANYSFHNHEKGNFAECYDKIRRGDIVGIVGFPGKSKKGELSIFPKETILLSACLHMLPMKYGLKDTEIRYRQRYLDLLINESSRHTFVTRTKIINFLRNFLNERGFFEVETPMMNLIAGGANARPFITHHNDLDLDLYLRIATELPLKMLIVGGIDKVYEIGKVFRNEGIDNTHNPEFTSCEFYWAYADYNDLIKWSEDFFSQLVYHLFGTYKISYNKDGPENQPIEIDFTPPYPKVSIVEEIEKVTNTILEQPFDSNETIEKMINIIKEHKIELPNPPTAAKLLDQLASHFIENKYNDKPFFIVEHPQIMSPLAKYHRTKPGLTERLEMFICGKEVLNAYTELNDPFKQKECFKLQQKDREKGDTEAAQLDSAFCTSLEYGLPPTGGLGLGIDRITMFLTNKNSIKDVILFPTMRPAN

Leishmania in macrophages: 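Cell assay of Leishmania donovani living inside macrophages; the read-out is not stated. Compounds at 30 µM. The record gives no direction; compounds that gave an IC50 in retests scored well above the rest, so higher reads as stronger inhibition. Size under these conditions: about 69,000 compounds, about 1,000 of them at 50% or above in at least one test.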
ClpP1P2: 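Protease assay of ClpP1P2, read by the AMC dye that it sets free. Target: ClpP1P2, Mycobacterium tuberculosis (UniProt P9WPC5 and UniProt P9WPC3). Compounds at 50 µM. Higher reads as stronger inhibition, judged from the few compounds that gave an IC50. Most other retested compounds had strongly negative values. Size under these conditions: about 69,000 compounds, about 10 of them at 50% or above in at least one test.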
Toxoplasma: 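Assay of Toxoplasma gondii numbers, read through their beta-galactosidase reporter with a colour substrate. Compounds at 10 µM. Higher reads as fewer parasites (inferred from which compounds were picked for retests). Size under these conditions: about 67,000 compounds, about 260 of them at 50% or above in at least one test.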
PfKRS1: 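Enzyme assay of the cytosolic lysyl-tRNA synthetase in 384-well plates, read by luminescence. Target: Lysine-tRNA ligase, Plasmodium falciparum 3D7 (UniProt Q8IDJ8). Concentration: 30 µM. Direction is inferred from only a few compounds that gave an IC50; most scored high, so higher reads as stronger inhibition. Size under these conditions: about 69,000 compounds, about 49 of them at 50% or above in at least one test.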

Values are the deposited “Percent Effect”, in %.
The controls that fix the scale are not given in the record; negative values are as filed.
This is an unselected part of the compounds tested.
Two or more numbers in one place are separate tests of the same structure; such repeats can differ widely.
A dash means the value is not listed here; it may have been measured.

structure | Leishmania in macrophages | ClpP1P2 | Toxoplasma | PfKRS1
Cc1ccnc(NC(=O)C2CCN(CCCn3ccnc3)CC2)c1 | 39.54% | -15.74% | 8.809% | 2.691%
CC(=O)N1CCC(C)(c2cc(C(=O)NCC(C)(C)C)nc(C)n2)CC1 | -26.7% | -5.037% | 0.916% | -1.95%
Cc1ccc(CN(C)Cc2nc3ccc(F)cc3[nH]2)cn1 | 12.06% | -8.448% | -8.439% | 1.924%
OCCN1CCN(Cc2coc(-c3ccccc3Cl)n2)CC1 | 11.18% | 5.302% | 0.9148% | 4.55%
Cc1nc2sccn2c1CNC1(c2ccccc2F)CCCC1.O=C(O)CC(O)(CC(=O)O)C(=O)O | 39.72% | - | 5.495% | -
Cc1csc(N2CCN(CC(=O)Nc3ccncc3)CC2C)n1 (stereo unspecified) | 46.6% | -37.1% | 11.22% | 0.3074%
Cc1cccc(NC(=O)N2CCC(CO)(Nc3ccccc3)CC2)c1 | 33.34% | -2.176% | -60.92% | 1.715%
O=C(O)C(F)(F)F.O=C(O)C(F)(F)F.c1cnc2c(c1)CN(C1CCOC1)CCN2CC1CC1 (stereo unspecified) | 3.771% and 7.222% | - | -3.725% | -
CN(C)C(=O)COC[C@]12COC[C@H]1CN(Cc1ccco1)C2 | - | -2.75% | - | -1.296%
O=C1CCN(C(=O)C2(c3ccc(F)cc3)CCOCC2)CCN1 | 8.856% | -5.152% | 5.019% | 2.711%
O=C(O)C(F)(F)F.[H][C@@]12CCN(CC3CC3)C[C@@]1([H])O[C@@H](c1nc(C)no1)C2 | -13.68% | - | 0.7761% | -
[H][C@@]12CCN(Cc3ccncc3)[C@]1([H])CC[C@@H](C(=O)N1CCCCO1)O2 | 5.841% | - | 6.028% | -
COc1cccc(CNC(=O)CCC2=Nc3ccccc3S(=O)(=O)N2)c1 | 13.82% | -1.895% | -11.29% | 1.506%
CCOCC1CN(C(=O)Cc2ccccn2)Cc2c1cnn2C (stereo unspecified) | - | -11.96% | - | 1.152%
Cc1ccc(C2CCCCCN2Cc2cn(C)nc2C)s1 (stereo unspecified) | 21.19% | 0.3365% | -1.774% | -5.112%
O=C(NCc1cncc2c1CCN(C1CCOCC1)C2)c1ccno1 | - | -19.18% | - | 3.54%
Cc1csc(CNC(=O)NCC(C)Cn2nc(C)cc2C)n1 (stereo unspecified) | 12.46% | -8.632% | 3.409% | -2.807%
Cc1nc(CN2CCc3c(nc(C4CC4)n3C)C2)nc2ccccc12 | 21.86% | -0.8365% | 9.228% | 2.06%
CS(=O)(=O)N1Cc2ccccc2CC2(CCN(Cc3ccccn3)C2)C1 (stereo unspecified) | -0.1557% | -14.91% | -2.9% | -2.918%
CN(CCC#N)C(=O)CN1CCC(c2cc3ccccc3[nH]2)CC1 | -18.58% | 7.531% | 6.095% | -5.068%
CC(C)(C)OC(=O)NCCc1csc(N2CCCC2)n1 | 28.36% | 3.374% | 18.72% | 0.04575%
CCOC(=O)N(C)C1CCN(Cc2cnc3ccccn23)CC1 | 20.35% | 0.5957% | 5.049% | 2.84%
CCOC(=O)c1ccc(CNC(=O)c2ccc(Cl)cn2)o1 | 7.635% | -2.22% | -5.187% | 5.426%
O=C(O)C(F)(F)F.O=C([C@H]1CCCO1)N1CCOC2(CCCN(c3ncccc3F)C2)C1 (stereo partly specified) | 7.976% | - | 17.17% | -
COc1ccc(C(=O)C2CCCN(c3cc(N)ncn3)C2)c(C)c1 (stereo unspecified) | 55.56% | -10.28% | 9.091% | 7.123%
COC1COC2(CCN(Cc3cccc(Cl)c3)CC2)C1 (stereo unspecified) | - | -1.134% | - | -1.998%
Nc1nccc(C2CCCN(CC3CC3)C2)n1 (stereo unspecified) | -20.25% | -10.89% | 0.3876% | 2.792%
Cc1cccc(N2Cc3c(NC4CCCC4)ncnc3N(C)CC2=O)c1 | 17.3% | 21.68% | -1.109% | -2.264%
Cc1ccc2nc(C)c(C)c(C(=O)NCCCn3ccnn3)c2c1 | 16% | 1.008% | -5.634% | -1.443%
CCc1noc(CN(Cc2cccs2)C2CC2)n1 | 5.348% | -11.19% | -9.222% | -1.364%
O=C(COCc1ccccc1Cl)N1CCN(c2ncccn2)CC1 | -10.7% | 6.631% | 3.977% | 5.423%
Nc1nccnc1C1CN(C(=O)c2cnccn2)CCO1 (stereo unspecified) | 18.75% and 18.07% | -1.121% | -6.537% | 0.8986%

2 of the entries, repeated:

| structure | Leishmania in macrophages | ClpP1P2 | Toxoplasma | PfKRS1 |
|---|---|---|---|---|
| `O=C(O)C(F)(F)F.O=C([C@H]1CCCO1)N1CCOC2(CCCN(c3ncccc3F)C2)C1` (stereo partly specified) | 7.976% | - | 17.17% | - |
| `OCCN1CCN(Cc2coc(-c3ccccc3Cl)n2)CC1` | 11.18% | 5.302% | 0.9148% | 4.55% |